Some of the results follow. Hit calls seldom repeat between salt and free forms of one compound.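 Kinases were expressed as nanoluciferase fusions in K562 cells and luminescence was read every 4 h between 2 and 18 h as percent of control, DMSO set to 100% and a positive control to 0%. A time point counts as decreased when the signal drops significantly (2 sigma). The hit call is the authors' own, does not follow from the count of time points alone, and its rule is not shown.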
Key:
Assay in all cases: kinase-Nluc reporter destabilization hit call (1 = scored as downregulated) (binary); higher = compound decreases kinase abundance
Conditions in all cases: K562; 2-18 h
CDK7 = CDK7 (UniProt P50613)
CDK9 = CDK9 (UniProt P50750)
CHEK2 = CHEK2 (UniProt O96017)
CSF1R = CSF1R (UniProt P07333)
CSK = CSK (UniProt P41240)
CSNK1A1 = CSNK1A1 (UniProt P48729)
CSNK1D = CSNK1D (UniProt P48730)
DDR1 = DDR1 (UniProt Q08345)
DYRK1B = DYRK1B (UniProt Q9Y463)
DYRK2 = DYRK2 (UniProt Q92630)
EGFR = EGFR (UniProt P00533)
EGFR_G719S = EGFR_G719S (UniProt P00533)
EGFR_G719S_T790M = EGFR_G719S_T790M (UniProt P00533)
EGFR_L718V = EGFR_L718V (UniProt P00533)
EGFR_L858R = EGFR_L858R (UniProt P00533)
EGFR_L861Q = EGFR_L861Q (UniProt P00533)
EGFR_T790M = EGFR_T790M (UniProt P00533)
EPHA2 = EPHA2 (UniProt P29317)
ERBB3 = ERBB3 (UniProt P21860)
[1] = molecular target: ERBB4_R711C (clone: ERBB4_mut) (UniProt Q15303)

The chains behind the UniProt entries cited, without tags or fusion partners. Where a name states a change or a piece, a line headed by the entry shows the natural chain unless it says otherwise.
UniProt P50750, whole entry: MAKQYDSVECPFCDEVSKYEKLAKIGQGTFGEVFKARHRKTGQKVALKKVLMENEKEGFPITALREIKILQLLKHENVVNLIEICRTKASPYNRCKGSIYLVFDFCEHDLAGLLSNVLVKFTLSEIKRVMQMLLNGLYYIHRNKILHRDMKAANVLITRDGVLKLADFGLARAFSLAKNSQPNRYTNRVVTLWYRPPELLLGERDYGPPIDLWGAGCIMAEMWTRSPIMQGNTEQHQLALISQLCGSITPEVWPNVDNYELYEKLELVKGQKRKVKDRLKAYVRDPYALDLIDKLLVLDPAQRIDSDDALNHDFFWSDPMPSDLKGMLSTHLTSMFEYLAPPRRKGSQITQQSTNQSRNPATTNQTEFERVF
UniProt O96017, whole entry: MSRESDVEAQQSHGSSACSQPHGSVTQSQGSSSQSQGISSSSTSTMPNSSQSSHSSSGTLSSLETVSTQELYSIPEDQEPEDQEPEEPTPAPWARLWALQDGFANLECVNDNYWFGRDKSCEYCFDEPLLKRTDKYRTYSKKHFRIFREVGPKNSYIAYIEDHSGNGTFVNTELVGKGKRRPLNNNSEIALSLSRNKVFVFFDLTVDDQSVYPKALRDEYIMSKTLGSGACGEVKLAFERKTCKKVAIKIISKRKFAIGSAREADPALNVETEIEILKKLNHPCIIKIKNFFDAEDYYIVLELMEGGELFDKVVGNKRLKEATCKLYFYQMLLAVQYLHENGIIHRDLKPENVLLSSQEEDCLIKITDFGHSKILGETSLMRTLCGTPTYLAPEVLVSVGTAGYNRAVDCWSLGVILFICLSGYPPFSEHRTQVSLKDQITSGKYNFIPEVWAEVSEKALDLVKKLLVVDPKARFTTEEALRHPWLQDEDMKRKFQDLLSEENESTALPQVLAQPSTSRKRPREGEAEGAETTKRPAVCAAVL
UniProt P07333, whole entry: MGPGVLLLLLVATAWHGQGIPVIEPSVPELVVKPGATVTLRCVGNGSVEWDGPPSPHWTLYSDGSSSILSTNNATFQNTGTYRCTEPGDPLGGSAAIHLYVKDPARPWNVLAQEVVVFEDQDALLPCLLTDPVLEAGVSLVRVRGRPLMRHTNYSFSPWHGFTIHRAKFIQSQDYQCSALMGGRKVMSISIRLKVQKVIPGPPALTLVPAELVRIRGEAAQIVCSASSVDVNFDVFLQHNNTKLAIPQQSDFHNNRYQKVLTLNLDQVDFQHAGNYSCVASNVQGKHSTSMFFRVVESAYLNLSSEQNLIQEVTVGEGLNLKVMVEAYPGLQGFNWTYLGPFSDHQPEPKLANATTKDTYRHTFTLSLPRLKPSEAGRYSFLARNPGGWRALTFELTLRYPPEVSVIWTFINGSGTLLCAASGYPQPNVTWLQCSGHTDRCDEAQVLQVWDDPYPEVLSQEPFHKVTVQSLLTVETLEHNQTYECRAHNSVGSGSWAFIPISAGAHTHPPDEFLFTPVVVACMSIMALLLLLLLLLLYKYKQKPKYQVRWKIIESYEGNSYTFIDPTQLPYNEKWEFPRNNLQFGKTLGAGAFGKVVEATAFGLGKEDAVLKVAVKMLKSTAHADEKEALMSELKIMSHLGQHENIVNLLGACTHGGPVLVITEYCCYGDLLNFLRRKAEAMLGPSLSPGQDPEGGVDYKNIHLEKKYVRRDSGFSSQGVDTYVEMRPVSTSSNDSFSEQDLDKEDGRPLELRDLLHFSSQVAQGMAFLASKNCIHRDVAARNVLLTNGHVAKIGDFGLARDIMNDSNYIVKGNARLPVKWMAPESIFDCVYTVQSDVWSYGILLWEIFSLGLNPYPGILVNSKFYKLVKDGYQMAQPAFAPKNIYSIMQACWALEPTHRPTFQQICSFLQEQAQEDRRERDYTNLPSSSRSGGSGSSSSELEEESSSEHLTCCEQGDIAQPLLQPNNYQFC
UniProt P41240: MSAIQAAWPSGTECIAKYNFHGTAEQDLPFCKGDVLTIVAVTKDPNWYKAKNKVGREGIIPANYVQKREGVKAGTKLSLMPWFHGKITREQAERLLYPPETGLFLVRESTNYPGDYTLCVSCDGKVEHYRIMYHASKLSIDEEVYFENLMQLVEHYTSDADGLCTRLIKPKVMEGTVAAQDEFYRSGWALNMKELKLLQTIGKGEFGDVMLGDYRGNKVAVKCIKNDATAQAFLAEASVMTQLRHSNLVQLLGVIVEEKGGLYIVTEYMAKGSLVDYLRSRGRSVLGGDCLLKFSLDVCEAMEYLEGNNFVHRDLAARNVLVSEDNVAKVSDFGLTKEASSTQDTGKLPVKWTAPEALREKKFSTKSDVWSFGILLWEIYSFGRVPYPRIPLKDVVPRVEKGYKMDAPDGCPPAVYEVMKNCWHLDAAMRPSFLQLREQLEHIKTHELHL
UniProt P48730: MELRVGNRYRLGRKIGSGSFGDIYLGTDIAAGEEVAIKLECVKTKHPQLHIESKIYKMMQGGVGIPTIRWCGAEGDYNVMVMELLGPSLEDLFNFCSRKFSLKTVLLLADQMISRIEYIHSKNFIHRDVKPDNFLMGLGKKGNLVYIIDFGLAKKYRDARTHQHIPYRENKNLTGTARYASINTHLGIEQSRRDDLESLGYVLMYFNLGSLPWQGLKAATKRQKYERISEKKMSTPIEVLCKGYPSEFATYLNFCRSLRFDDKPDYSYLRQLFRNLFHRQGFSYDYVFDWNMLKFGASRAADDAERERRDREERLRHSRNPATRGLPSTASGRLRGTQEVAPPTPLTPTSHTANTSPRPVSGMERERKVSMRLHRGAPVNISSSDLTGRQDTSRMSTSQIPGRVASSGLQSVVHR
UniProt Q08345: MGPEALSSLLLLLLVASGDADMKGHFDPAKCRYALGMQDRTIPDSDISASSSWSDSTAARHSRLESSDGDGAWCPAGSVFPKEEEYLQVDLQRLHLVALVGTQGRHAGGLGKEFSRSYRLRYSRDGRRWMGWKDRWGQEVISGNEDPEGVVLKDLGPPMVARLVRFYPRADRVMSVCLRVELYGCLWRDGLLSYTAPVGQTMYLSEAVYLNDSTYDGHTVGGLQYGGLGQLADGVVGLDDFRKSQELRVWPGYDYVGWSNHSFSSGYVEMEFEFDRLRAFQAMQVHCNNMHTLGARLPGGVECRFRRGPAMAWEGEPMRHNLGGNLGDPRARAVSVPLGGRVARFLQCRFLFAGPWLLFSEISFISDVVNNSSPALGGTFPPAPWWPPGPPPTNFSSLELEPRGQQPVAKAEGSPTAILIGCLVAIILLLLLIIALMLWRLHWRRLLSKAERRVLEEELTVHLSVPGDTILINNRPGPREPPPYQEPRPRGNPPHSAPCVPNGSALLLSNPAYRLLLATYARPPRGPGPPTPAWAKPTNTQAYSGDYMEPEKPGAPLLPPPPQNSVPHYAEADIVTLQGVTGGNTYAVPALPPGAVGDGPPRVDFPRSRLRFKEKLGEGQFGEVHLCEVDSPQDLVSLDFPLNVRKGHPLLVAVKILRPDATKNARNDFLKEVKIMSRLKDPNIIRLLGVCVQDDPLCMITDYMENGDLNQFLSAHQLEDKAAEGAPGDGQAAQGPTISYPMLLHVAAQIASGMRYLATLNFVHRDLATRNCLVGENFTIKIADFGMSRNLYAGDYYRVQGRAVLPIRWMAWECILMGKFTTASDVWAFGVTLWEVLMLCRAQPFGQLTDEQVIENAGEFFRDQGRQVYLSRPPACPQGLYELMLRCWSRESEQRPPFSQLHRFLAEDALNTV
UniProt Q92630: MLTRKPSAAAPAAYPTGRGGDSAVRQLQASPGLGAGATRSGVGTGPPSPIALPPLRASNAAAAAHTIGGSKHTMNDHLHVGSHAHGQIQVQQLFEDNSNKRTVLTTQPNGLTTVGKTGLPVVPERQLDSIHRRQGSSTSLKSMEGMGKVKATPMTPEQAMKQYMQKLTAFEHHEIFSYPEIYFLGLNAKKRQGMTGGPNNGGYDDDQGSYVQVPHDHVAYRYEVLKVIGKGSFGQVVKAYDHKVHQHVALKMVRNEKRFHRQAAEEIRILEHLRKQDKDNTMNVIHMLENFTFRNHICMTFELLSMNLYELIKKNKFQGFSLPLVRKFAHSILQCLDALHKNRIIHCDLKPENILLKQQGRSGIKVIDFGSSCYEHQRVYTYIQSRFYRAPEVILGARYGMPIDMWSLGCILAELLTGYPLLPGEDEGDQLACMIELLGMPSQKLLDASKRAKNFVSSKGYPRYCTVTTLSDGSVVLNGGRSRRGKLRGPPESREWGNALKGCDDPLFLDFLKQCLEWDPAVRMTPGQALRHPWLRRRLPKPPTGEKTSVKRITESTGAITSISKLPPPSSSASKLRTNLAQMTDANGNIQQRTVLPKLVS
UniProt P29317, whole entry: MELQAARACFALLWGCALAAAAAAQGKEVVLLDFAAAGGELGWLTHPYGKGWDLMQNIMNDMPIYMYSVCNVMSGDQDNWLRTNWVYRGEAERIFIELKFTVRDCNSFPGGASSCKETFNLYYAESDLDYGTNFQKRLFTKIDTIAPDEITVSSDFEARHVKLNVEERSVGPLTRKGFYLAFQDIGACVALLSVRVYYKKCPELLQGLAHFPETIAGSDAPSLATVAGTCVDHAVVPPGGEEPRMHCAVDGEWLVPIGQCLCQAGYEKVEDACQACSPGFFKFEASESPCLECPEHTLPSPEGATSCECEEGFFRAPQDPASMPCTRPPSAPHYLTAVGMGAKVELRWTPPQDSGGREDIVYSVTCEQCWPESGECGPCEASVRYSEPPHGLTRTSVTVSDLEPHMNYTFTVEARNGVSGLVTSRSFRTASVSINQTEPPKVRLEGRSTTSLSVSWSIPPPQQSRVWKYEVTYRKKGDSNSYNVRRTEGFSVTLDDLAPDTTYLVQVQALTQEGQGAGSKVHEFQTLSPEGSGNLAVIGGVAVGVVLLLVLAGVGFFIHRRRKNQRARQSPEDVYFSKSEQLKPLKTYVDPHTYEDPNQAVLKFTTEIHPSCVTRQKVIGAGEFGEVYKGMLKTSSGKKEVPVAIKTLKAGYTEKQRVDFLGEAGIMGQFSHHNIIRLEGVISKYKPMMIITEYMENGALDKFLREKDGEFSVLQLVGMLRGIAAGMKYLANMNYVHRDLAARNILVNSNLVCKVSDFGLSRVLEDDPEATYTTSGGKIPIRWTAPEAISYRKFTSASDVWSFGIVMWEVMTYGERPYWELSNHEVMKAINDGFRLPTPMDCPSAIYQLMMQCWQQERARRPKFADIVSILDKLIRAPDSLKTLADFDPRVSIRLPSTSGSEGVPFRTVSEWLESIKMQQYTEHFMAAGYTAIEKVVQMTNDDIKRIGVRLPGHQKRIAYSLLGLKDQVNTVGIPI
UniProt P21860, whole entry: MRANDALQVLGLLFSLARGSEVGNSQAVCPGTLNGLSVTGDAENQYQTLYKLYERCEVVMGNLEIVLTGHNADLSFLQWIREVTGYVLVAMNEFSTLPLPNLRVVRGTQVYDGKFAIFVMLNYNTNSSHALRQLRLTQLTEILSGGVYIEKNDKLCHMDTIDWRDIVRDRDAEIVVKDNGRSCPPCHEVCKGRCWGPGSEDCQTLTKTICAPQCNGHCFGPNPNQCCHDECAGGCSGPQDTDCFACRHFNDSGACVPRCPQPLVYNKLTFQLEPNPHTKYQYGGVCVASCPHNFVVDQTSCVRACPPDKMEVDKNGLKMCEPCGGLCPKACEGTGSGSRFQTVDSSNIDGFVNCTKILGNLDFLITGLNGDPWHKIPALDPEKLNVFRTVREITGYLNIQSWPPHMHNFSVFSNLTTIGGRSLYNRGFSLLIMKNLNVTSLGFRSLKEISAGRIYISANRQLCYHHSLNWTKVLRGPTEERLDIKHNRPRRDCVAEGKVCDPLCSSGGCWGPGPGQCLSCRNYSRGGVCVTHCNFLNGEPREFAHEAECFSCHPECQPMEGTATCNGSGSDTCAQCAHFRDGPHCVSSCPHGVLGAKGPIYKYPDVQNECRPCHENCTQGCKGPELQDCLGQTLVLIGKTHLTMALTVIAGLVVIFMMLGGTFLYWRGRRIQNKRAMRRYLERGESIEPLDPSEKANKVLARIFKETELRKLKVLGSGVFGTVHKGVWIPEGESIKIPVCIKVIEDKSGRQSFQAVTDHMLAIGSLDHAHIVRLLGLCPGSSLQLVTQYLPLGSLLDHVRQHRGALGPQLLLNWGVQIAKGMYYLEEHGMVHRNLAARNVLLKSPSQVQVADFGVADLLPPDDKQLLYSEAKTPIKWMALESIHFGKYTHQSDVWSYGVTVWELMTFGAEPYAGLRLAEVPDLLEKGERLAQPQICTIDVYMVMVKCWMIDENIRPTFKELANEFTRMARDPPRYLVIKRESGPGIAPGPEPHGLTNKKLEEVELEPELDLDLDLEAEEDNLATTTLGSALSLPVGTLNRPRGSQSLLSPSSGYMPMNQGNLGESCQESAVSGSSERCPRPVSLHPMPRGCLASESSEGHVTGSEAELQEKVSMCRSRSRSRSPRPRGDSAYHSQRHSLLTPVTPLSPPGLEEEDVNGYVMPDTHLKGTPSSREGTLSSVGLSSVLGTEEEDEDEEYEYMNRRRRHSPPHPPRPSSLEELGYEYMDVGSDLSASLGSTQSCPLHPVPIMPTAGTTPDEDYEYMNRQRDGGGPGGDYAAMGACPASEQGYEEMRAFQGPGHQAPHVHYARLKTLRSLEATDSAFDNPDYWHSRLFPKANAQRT

Measured: kinase-Nluc reporter destabilization hit call

Cc1ccc(-c2ncn(-c3ccc(Nc4nccc(-c5cccc(N6CCOCC6)c5)n4)cc3)n2)cn1 (10 µM)
inactive: CDK7 = 0 | CDK9 = 0 | CHEK2 = 0 | CSF1R 0 | CSK 0 | CSNK1A1 = 0 | CSNK1D 0 | DDR1 = 0 | DYRK1B 0 | DYRK2 = 0 | EGFR 0 | EGFR_G719S 0 | EGFR_G719S_T790M 0 | EGFR_L718V 0 | EGFR_L858R 0 | EGFR_L861Q 0 | EGFR_T790M 0 | EPHA2 = 0 | ERBB3 = 0 | [1] 0

CC(C)(C)c1cc(C(c2cc3c(cc2O)OCO3)N2CCOCC2)cc(C(C)(C)C)c1O (stereo not given) (2.5 µM)
inactive: CDK7 = 0 | CDK9 = 0 | CHEK2 = 0 | CSF1R 0 | CSK 0 | CSNK1A1 = 0 | CSNK1D 0 | DDR1 = 0 | DYRK1B 0 | DYRK2 = 0 | EGFR 0 | EGFR_G719S 0 | EGFR_G719S_T790M 0 | EGFR_L718V 0 | EGFR_L858R 0 | EGFR_L861Q 0 | EGFR_T790M 0 | EPHA2 = 0 | ERBB3 = 0 | [1] 0

c1ccc(-c2oc3ncnc(NC[C@@H]4CCCO4)c3c2-c2ccccc2)cc1 (2.5 µM)
inactive: CDK7 = 0 | CDK9 = 0 | CHEK2 = 0 | CSF1R 0 | CSK 0 | CSNK1A1 = 0 | CSNK1D 0 | DDR1 = 0 | DYRK1B 0 | DYRK2 = 0 | EGFR 0 | EGFR_G719S 0 | EGFR_G719S_T790M 0 | EGFR_L718V 0 | EGFR_L858R 0 | EGFR_L861Q 0 | EGFR_T790M 0 | EPHA2 = 0 | ERBB3 = 0 | [1] 0

Cc1cc(C(C)Nc2ccccc2)c2nc(N3CCOCC3)cc(=O)n2c1 (stereo not given) (10 µM)
inactive: CDK7 = 0 | CDK9 = 0 | CHEK2 = 0 | CSF1R 0 | CSK 0 | CSNK1A1 = 0 | CSNK1D 0 | DDR1 = 0 | DYRK1B 0 | DYRK2 = 0 | EGFR 0 | EGFR_G719S 0 | EGFR_G719S_T790M 0 | EGFR_L718V 0 | EGFR_L858R 0 | EGFR_L861Q 0 | EGFR_T790M 0 | EPHA2 = 0 | ERBB3 = 0 | [1] 0

CC(C)N(C)c1nc2cc(C(=O)O)ccc2nc1-c1ccc(F)cc1 (10 µM)
inactive: CDK7 = 0 | CDK9 = 0 | CHEK2 = 0 | CSF1R 0 | CSK 0 | CSNK1A1 = 0 | CSNK1D 0 | DDR1 = 0 | DYRK1B 0 | DYRK2 = 0 | EGFR 0 | EGFR_G719S 0 | EGFR_G719S_T790M 0 | EGFR_L718V 0 | EGFR_L858R 0 | EGFR_L861Q 0 | EGFR_T790M 0 | EPHA2 = 0 | ERBB3 = 0 | [1] 0

O=c1ccoc2cc(O)ccc12 [7-Hydroxy-4H-chromen-4-one] (10 µM)
inactive: CDK7 = 0 | CDK9 = 0 | CHEK2 = 0 | CSF1R 0 | CSK 0 | CSNK1A1 = 0 | CSNK1D 0 | DDR1 = 0 | DYRK1B 0 | DYRK2 = 0 | EGFR 0 | EGFR_G719S 0 | EGFR_G719S_T790M 0 | EGFR_L718V 0 | EGFR_L858R 0 | EGFR_L861Q 0 | EGFR_T790M 0 | EPHA2 = 0 | ERBB3 = 0 | [1] 0

COc1ncc(Nc2ncc([C@@H](C)N3CCN(S(C)(=O)=O)CC3)cc2-c2nc(C)nc(N)n2)cc1F (10 µM)
inactive: CDK7 = 0 | CDK9 = 0 | CHEK2 = 0 | CSF1R 0 | CSK 0 | CSNK1A1 = 0 | CSNK1D 0 | DDR1 = 0 | DYRK1B 0 | DYRK2 = 0 | EGFR 0 | EGFR_G719S 0 | EGFR_G719S_T790M 0 | EGFR_L718V 0 | EGFR_L858R 0 | EGFR_L861Q 0 | EGFR_T790M 0 | EPHA2 = 0 | ERBB3 = 0 | [1] 0

Cn1cc(-c2ccc3nnc(C(F)(F)c4ccc5ncccc5c4)n3n2)cn1 (10 µM)
inactive: CDK7 = 0 | CDK9 = 0 | CHEK2 = 0 | CSF1R 0 | CSK 0 | CSNK1A1 = 0 | CSNK1D 0 | DDR1 = 0 | DYRK1B 0 | DYRK2 = 0 | EGFR 0 | EGFR_G719S 0 | EGFR_G719S_T790M 0 | EGFR_L718V 0 | EGFR_L858R 0 | EGFR_L861Q 0 | EGFR_T790M 0 | EPHA2 = 0 | ERBB3 = 0 | [1] 0

Nc1n[nH]c2cc(-c3ccc(=O)n(Cc4cccc(Cl)c4)c3)ccc12 (10 µM)
inactive: CDK7 = 0 | CDK9 = 0 | CHEK2 = 0 | CSF1R 0 | CSK 0 | CSNK1A1 = 0 | CSNK1D 0 | DDR1 = 0 | DYRK1B 0 | DYRK2 = 0 | EGFR 0 | EGFR_G719S 0 | EGFR_G719S_T790M 0 | EGFR_L718V 0 | EGFR_L858R 0 | EGFR_L861Q 0 | EGFR_T790M 0 | EPHA2 = 0 | ERBB3 = 0 | [1] 0

CCCCCCCC/C=C\CCCCCCCC(=O)NCC(=O)O [N-Oleoyl glycine] (10 µM)
inactive: CDK7 = 0 | CDK9 = 0 | CHEK2 = 0 | CSF1R 0 | CSK 0 | CSNK1A1 = 0 | CSNK1D 0 | DDR1 = 0 | DYRK1B 0 | DYRK2 = 0 | EGFR 0 | EGFR_G719S 0 | EGFR_G719S_T790M 0 | EGFR_L718V 0 | EGFR_L858R 0 | EGFR_L861Q 0 | EGFR_T790M 0 | EPHA2 = 0 | ERBB3 = 0 | [1] 0

O=c1cc(-c2ccc(O)c(O)c2O)oc2ccccc12 (10 µM)
inactive: CDK7 = 0 | CDK9 = 0 | CHEK2 = 0 | CSF1R 0 | CSK 0 | CSNK1A1 = 0 | CSNK1D 0 | DDR1 = 0 | DYRK1B 0 | DYRK2 = 0 | EGFR 0 | EGFR_G719S 0 | EGFR_G719S_T790M 0 | EGFR_L718V 0 | EGFR_L858R 0 | EGFR_L861Q 0 | EGFR_T790M 0 | EPHA2 = 0 | ERBB3 = 0 | [1] 0

Cn1cc(-c2ccc(F)c(C(F)(F)F)c2)nc1C1CCN(c2ncnc3[nH]ncc23)CC1 (10 µM)
inactive: CDK7 = 0 | CDK9 = 0 | CHEK2 = 0 | CSF1R 0 | CSK 0 | CSNK1A1 = 0 | CSNK1D 0 | DDR1 = 0 | DYRK1B 0 | DYRK2 = 0 | EGFR 0 | EGFR_G719S 0 | EGFR_G719S_T790M 0 | EGFR_L718V 0 | EGFR_L858R 0 | EGFR_L861Q 0 | EGFR_T790M 0 | EPHA2 = 0 | ERBB3 = 0 | [1] 0

CC(C)c1cc(/C=C(\C#N)C(N)=O)cc(C(C)C)c1O (10 µM)
inactive: CDK7 = 0 | CDK9 = 0 | CHEK2 = 0 | CSF1R 0 | CSK 0 | CSNK1A1 = 0 | CSNK1D 0 | DDR1 = 0 | DYRK1B 0 | DYRK2 = 0 | EGFR 0 | EGFR_G719S 0 | EGFR_G719S_T790M 0 | EGFR_L718V 0 | EGFR_L858R 0 | EGFR_L861Q 0 | EGFR_T790M 0 | EPHA2 = 0 | ERBB3 = 0 | [1] 0

As a short view, two of the compounds above:
CCCCCCCC/C=C\CCCCCCCC(=O)NCC(=O)O [N-Oleoyl glycine] (10 µM)
inactive: CDK7 = 0 | CDK9 = 0 | CHEK2 = 0 | CSF1R 0 | CSK 0 | CSNK1A1 = 0 | CSNK1D 0 | DDR1 = 0 | DYRK1B 0 | DYRK2 = 0 | EGFR 0 | EGFR_G719S 0 | EGFR_G719S_T790M 0 | EGFR_L718V 0 | EGFR_L858R 0 | EGFR_L861Q 0 | EGFR_T790M 0 | EPHA2 = 0 | ERBB3 = 0 | [1] 0

O=c1cc(-c2ccc(O)c(O)c2O)oc2ccccc12 (10 µM)
inactive: CDK7 = 0 | CDK9 = 0 | CHEK2 = 0 | CSF1R 0 | CSK 0 | CSNK1A1 = 0 | CSNK1D 0 | DDR1 = 0 | DYRK1B 0 | DYRK2 = 0 | EGFR 0 | EGFR_G719S 0 | EGFR_G719S_T790M 0 | EGFR_L718V 0 | EGFR_L858R 0 | EGFR_L861Q 0 | EGFR_T790M 0 | EPHA2 = 0 | ERBB3 = 0 | [1] 0

Following part:

O=C1NC(=O)C(c2cnc3ccccn23)=C1c1cn2c3c(cc(F)cc13)CN(C(=O)N1CCCCC1)CC2 (2.5 µM)
inactive: CDK7 = 0 | CDK9 = 0 | CHEK2 = 0 | CSF1R 0 | CSK 0 | CSNK1A1 = 0 | CSNK1D 0 | DDR1 = 0 | DYRK1B 0 | DYRK2 = 0 | EGFR 0 | EGFR_G719S 0 | EGFR_G719S_T790M 0 | EGFR_L718V 0 | EGFR_L858R 0 | EGFR_L861Q 0 | EGFR_T790M 0 | EPHA2 = 0 | ERBB3 = 0 | [1] 0

CC[C@H](C)[C@H](NC(=O)[C@H](CCC(=O)O)NC(=O)[C@H](CCCN=C(N)N)NC(=O)[C@H](CCCN=C(N)N)NC(=O)[C@@H](N)CCCCN)C(=O)N[C@@H](CC(C)C)C(=O)N[C@@H](CO)C(=O)N[C@@H](CCCN=C(N)N)C(=O)N[C@@H](CCCN=C(N)N)C(=O)N1CCC[C@H]1C(=O)N[C@@H](CO)C(=O)N[C@@H](Cc1ccc(O)cc1)C(=O)N[C@@H](CCCN=C(N)N)C(=O)O [CREBtide] (10 µM)
inactive: CDK7 = 0 | CDK9 = 0 | CHEK2 = 0 | CSF1R 0 | CSK 0 | CSNK1A1 = 0 | CSNK1D 0 | DDR1 = 0 | DYRK1B 0 | DYRK2 = 0 | EGFR 0 | EGFR_G719S 0 | EGFR_G719S_T790M 0 | EGFR_L718V 0 | EGFR_L858R 0 | EGFR_L861Q 0 | EGFR_T790M 0 | EPHA2 = 0 | ERBB3 = 0 | [1] 0

COc1ccccc1/C=C1\C(=O)Nc2ccccc21 (10 µM)
inactive: CDK7 = 0 | CDK9 = 0 | CHEK2 = 0 | CSF1R 0 | CSK 0 | CSNK1A1 = 0 | CSNK1D 0 | DDR1 = 0 | DYRK1B 0 | DYRK2 = 0 | EGFR 0 | EGFR_G719S 0 | EGFR_G719S_T790M 0 | EGFR_L718V 0 | EGFR_L858R 0 | EGFR_L861Q 0 | EGFR_T790M 0 | EPHA2 = 0 | ERBB3 = 0 | [1] 0

CN(C)c1ncnc2nc[nH]c12 [6-(Dimethylamino)purine] (10 µM)
inactive: CDK7 = 0 | CDK9 = 0 | CHEK2 = 0 | CSF1R 0 | CSK 0 | CSNK1A1 = 0 | CSNK1D 0 | DDR1 = 0 | DYRK1B 0 | DYRK2 = 0 | EGFR 0 | EGFR_G719S 0 | EGFR_G719S_T790M 0 | EGFR_L718V 0 | EGFR_L858R 0 | EGFR_L861Q 0 | EGFR_T790M 0 | EPHA2 = 0 | ERBB3 = 0 | [1] 0

CNC(=O)c1cc(Oc2ccc3nc(N[C@@H]4CCCC[C@H]4O)sc3c2)ccn1 (10 µM)
inactive: CDK7 = 0 | CDK9 = 0 | CHEK2 = 0 | CSF1R 0 | CSK 0 | CSNK1A1 = 0 | CSNK1D 0 | DDR1 = 0 | DYRK1B 0 | DYRK2 = 0 | EGFR 0 | EGFR_G719S 0 | EGFR_G719S_T790M 0 | EGFR_L718V 0 | EGFR_L858R 0 | EGFR_L861Q 0 | EGFR_T790M 0 | EPHA2 = 0 | ERBB3 = 0 | [1] 0
